No constants are given. Whether binding was seen depends on the method and setting. Binding seen in cells or lysates may run through a third protein. Some binding calls cover weakened binding; strength is not graded here.

Sequences of proteins named here, by UniProt entry; tags and fusion partners are left off.
UniProt Q16665: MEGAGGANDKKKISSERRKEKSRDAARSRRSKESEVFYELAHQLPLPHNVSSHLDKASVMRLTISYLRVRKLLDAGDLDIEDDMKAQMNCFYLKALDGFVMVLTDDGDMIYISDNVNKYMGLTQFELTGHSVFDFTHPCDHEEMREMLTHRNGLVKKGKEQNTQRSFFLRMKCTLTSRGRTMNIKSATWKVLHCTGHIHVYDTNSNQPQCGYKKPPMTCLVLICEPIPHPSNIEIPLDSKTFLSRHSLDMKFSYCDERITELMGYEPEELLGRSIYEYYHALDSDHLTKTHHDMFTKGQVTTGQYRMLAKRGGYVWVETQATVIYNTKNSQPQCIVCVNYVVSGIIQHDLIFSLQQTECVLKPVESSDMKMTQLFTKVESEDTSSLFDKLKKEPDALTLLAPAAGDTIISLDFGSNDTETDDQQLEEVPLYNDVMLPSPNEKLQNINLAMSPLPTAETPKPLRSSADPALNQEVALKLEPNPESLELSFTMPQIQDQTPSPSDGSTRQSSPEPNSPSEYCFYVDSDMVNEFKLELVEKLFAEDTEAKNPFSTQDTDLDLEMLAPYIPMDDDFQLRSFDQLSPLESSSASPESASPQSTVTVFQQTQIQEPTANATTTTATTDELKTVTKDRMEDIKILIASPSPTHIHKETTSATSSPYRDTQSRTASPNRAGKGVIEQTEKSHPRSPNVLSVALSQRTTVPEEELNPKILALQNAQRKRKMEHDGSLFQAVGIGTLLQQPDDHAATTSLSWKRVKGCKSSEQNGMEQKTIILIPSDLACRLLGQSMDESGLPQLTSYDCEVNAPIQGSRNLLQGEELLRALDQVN
UniProt Q92793: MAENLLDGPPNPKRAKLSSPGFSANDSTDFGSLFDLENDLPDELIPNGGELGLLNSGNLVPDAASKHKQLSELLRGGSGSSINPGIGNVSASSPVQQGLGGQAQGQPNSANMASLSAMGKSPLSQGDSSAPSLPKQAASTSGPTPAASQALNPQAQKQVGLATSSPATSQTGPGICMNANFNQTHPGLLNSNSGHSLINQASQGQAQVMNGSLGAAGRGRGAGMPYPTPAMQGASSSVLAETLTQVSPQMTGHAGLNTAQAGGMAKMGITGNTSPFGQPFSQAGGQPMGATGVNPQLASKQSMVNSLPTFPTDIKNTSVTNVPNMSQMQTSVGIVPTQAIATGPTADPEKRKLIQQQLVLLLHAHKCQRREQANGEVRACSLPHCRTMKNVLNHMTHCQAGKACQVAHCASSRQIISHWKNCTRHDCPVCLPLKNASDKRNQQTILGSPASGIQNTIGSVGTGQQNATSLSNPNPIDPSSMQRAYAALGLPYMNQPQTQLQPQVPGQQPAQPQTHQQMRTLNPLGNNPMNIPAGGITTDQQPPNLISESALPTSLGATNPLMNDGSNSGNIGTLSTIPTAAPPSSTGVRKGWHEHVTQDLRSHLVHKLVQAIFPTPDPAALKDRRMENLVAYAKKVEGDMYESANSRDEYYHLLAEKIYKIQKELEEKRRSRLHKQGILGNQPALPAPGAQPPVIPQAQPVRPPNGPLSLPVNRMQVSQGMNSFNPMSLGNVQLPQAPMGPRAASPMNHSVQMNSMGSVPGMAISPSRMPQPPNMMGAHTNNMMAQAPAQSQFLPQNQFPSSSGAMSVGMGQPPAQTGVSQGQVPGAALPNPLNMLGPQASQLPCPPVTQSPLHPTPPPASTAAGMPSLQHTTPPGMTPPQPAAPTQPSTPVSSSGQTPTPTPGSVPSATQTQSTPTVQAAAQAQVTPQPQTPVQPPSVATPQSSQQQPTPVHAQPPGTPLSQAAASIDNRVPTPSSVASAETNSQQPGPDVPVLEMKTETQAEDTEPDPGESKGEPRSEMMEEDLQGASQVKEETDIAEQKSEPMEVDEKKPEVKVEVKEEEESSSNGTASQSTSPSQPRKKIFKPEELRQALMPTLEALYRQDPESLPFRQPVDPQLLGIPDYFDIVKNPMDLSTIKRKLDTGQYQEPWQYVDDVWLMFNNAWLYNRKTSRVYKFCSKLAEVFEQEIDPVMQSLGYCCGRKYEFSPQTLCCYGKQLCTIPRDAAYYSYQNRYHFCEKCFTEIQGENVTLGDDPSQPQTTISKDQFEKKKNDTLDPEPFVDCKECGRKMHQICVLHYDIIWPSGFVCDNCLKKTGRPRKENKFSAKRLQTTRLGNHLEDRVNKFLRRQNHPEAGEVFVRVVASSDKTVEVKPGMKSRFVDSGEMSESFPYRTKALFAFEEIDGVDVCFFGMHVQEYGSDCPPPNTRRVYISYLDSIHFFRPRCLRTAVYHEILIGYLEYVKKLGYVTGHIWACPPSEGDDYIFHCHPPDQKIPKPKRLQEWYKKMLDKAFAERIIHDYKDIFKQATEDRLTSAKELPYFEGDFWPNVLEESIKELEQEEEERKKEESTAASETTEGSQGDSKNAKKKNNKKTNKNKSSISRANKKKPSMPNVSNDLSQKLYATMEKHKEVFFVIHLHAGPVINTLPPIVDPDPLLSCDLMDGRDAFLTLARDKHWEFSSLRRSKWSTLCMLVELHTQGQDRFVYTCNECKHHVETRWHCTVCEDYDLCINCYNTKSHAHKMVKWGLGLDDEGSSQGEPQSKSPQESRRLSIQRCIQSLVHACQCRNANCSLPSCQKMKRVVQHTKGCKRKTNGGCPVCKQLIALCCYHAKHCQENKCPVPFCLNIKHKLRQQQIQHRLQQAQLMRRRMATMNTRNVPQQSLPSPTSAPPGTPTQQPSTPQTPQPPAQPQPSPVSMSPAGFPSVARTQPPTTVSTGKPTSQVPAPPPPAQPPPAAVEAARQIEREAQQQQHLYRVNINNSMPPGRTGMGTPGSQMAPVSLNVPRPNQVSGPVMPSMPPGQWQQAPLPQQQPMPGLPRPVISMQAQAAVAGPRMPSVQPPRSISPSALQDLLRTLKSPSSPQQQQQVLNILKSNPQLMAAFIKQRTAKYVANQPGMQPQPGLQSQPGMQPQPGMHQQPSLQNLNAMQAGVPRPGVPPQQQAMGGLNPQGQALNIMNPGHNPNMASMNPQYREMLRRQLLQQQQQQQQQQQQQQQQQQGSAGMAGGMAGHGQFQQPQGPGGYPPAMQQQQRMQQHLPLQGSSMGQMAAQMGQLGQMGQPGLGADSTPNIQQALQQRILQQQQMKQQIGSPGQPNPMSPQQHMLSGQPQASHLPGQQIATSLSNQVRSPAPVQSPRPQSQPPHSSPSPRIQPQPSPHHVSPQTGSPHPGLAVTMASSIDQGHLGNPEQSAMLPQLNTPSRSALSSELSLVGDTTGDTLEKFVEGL

The target in the assay is HIF-1α (human (endogenous in HCC cells)) (UniProt Q16665). Nature of the assay: co-IP; cells dissolved in RIPA; IP with anti-HIF-1α antibody or IgG and beads at 4 °C overnight; western blot for p300 and CBP; circPRDM4-overexpressing or control cells. On the technique in general: A western blot detects proteins with antibodies after separation by electrophoresis.

As for CBP (from UniProt Q92793 1-2442), the binding result is listed as “binds”.

The values above are taken from article PMC9903500.
